# Assay results from US10450275B2, “Compounds and methods for treating cancer, neurological disorders, ethanol withdrawal, anxiety, depression, and neuropathic pain” (Board of Regents, The University of Texas System, priority 2013, dated 2019).
# The name of at least one read-out is uncertain.
# Assay: Blood brain barrier permeability / brain concentration and brain clearance of JJS-1-166 in mice
# Format: in vivo, C57Bl/6j mice
# Conditions: mouse, overall statement
# Method: FIG. 1. Nine C57Bl/6j male mice (2-3 months old). Prior to PK evaluation, 3 animals were dosed with vehicle and were used to identify the standard curve using liquid chromatography-mass spectrometry (LC-MS) and as controls. Animals were randomized into 3 groups (n=3 per group). One group dosed Intravenously (IV), one group orally (PO), and one group subcutaneously (SC) with 10 mg/kg of the compound. From each animal blood will be collected 5 times: baseline (before the single dose); 5 minute; 30 minute; 1 hour; 3 hour after the single dose of the compound. (The first 4 collections are retro-orbital and the last one is terminal together with collection of the brain. Brain and blood will be flash frozen in liquid nitrogen and kept in −80° C. for later analysis. The concentration of compounds in the blood samples and brain tissues will be measured using LC-MS method.) FIG. 6. 3 day brain clearance study. A C57Bl/6j mouse was treated with 10 mg/kg JJS-1-166. After 3 days, the level of JJS-1-166 in the brain was assessed to ensure that all or a majority of the drug had been cleared. We determined the blood brain barrier (BBB) permeability and pharmacokinetic (PK) profile of JJS-1-166 (phase I), and subsequently investigated the efficacy of JJS-1-166 in an Alzheimer's disease (AD) mouse model. LC-MS/MS Method Development for Compound JJS-1-166 [table] [table]
smiles,measurement,value
CN1CCN(c2ccc3c(c2)[C@H]2CC3CCN2C(=O)OCc2ccccc2)CC1 [JJS-1-166],blood-brain-barrier (BBB) permeability,acceptable
